Data source: PubChem BioAssay AID686938 (Drosophila RNAi Screening Center, 2013)

Purpose: 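Fly genes required for calcium entry once internal stores are emptied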 (primary screen)
Cell system: Drosophila S2R+ cells
Reagent: long dsRNA against Drosophila genes, about 0.25 µg dsRNA per well, roughly 10,000 cells
Time to read-out: 5 days of knock-down before the calcium assay
Conditions: thapsigargin (SERCA pump blocker) to empty calcium stores; entry signal taken 4 min after adding it
Read-out: 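Duplicate raw fluo-4 intensities per well from a plate reader, at rest and four minutes after thapsigargin emptied calcium stores; entry-to-rest ratio filled for only some wells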
Reading the numbers: calcium entry signal: higher = stronger calcium signal after store depletion; resting calcium signal: higher = higher resting calcium signal
Units: calcium entry signal in fluorescence units; resting calcium signal in fluorescence units
Hit rule: 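Called when the plate z-score of the entry-to-rest ratio, mean of duplicates, falls below −3; wells with low overall dye signal (Fmax z below −2) or more than five off-targets excluded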
Calls: active = strongly reduced calcium entry; inactive = no strong reduction
The screen tested about 23,000 reagents; below is an unselected part of those that have a named target and a result. Over the whole deposit, 75 (0.33%) were called active. 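Raw plate signals without normalisation; calls rest on plate z-scores that were not deposited; ratio present for only 364 wells.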 A number with no mark means an inactive call. A plus sign joins genes that one reagent is predicted to hit. Not stated in the record: the dose of the treatment.

gene | amplicon | calcium entry signal, replicate 1 | calcium entry signal, replicate 2 | resting calcium signal, replicate 1 | resting calcium signal, replicate 2
robo1 (GeneID 37603) | DRSC04712 | 3.67e7 | 4.64e7 | 1.93e7 | 2.23e7
yrt (GeneID 41656) | DRSC16559 | 3.21e7 | 4.79e7 | 1.52e7 | 2.09e7
CG15368 (GeneID 31861) | DRSC18040 | 3.35e7 | 5.31e7 | 1.63e7 | 2.61e7
CG15368 (GeneID 31861) | DRSC23291 | 4.93e7 | 3.13e7 | 2.52e7 | 1.44e7
CG45067 (GeneID 38371) | DRSC08414 | 3.51e7 | 4.02e7 | 1.76e7 | 1.93e7
sha (GeneID 36213) | DRSC06331 | 2.98e7 | 3.18e7 | 1.48e7 | 1.54e7
ftz-f1 (GeneID 40045) | DRSC11347 | 2.56e7 | 5.07e7 | 1.45e7 | 1.91e7
Nepl4 (GeneID 33889) | DRSC03239 | 4.92e7 | – | 2.49e7 | –
CG18539 (GeneID 37096) | DRSC06766 | 4.61e7 | 6.95e7 | 2.08e7 | 3.23e7
CG9147 (GeneID 33855) | DRSC03147 | 3.98e7 | 3.71e7 | 1.87e7 | 1.73e7
Mfe2 (GeneID 32582) | DRSC19869 | 4.09e7 | 4.00e7 | 1.98e7 | 1.79e7
Dcr-2 (GeneID 36993) | DRSC06992 | 4.93e7 | 5.51e7 | 2.14e7 | 2.41e7
maf-S (GeneID 37336) | DRSC07348 | 2.05e7 | 2.41e7 | 1.03e7 | 1.12e7
Cpr76Ba (GeneID 40120) | DRSC11060 | 2.35e7 | 3.76e7 | 1.18e7 | 1.74e7
CG11537 (GeneID 38373) | DRSC08200 | 3.34e7 | 2.35e7 | 2.19e7 | 1.01e7
eca (GeneID 41177) | DRSC22290 | 2.95e7 | 4.14e7 | 1.57e7 | 2.24e7
Clic (GeneID 32349) | DRSC19364 | 2.15e7 | 3.28e7 | 1.21e7 | 1.51e7
CG31674 (GeneID 318878) | DRSC03208 | 3.42e7 | 5.78e7 | 1.60e7 | 2.09e7
AgmNAT (GeneID 31512) | DRSC18072 | 2.57e7 | 3.55e7 | 1.40e7 | 1.67e7
Hs3st-B (GeneID 32918) | DRSC20067 | 5.08e7 | 5.62e7 | 2.48e7 | 2.57e7

4 successive records from above, for reference:
gene | amplicon | calcium entry signal, replicate 1 | calcium entry signal, replicate 2 | resting calcium signal, replicate 1 | resting calcium signal, replicate 2
Mfe2 (GeneID 32582) | DRSC19869 | 4.09e7 | 4.00e7 | 1.98e7 | 1.79e7
Dcr-2 (GeneID 36993) | DRSC06992 | 4.93e7 | 5.51e7 | 2.14e7 | 2.41e7
maf-S (GeneID 37336) | DRSC07348 | 2.05e7 | 2.41e7 | 1.03e7 | 1.12e7
Cpr76Ba (GeneID 40120) | DRSC11060 | 2.35e7 | 3.76e7 | 1.18e7 | 1.74e7

More results follow:
gene | amplicon | calcium entry signal, replicate 1 | calcium entry signal, replicate 2 | resting calcium signal, replicate 1 | resting calcium signal, replicate 2
parvin (GeneID 32990) | DRSC19468 | 3.61e7 | 3.58e7 | 1.67e7 | 1.40e7
CG11307 (GeneID 40400) | DRSC11648 | 2.24e7 | 3.31e7 | 1.07e7 | 1.50e7
CG32582 (retired record) (GeneID 318099) | DRSC19114 | 2.85e7 | 3.49e7 | 1.43e7 | 1.54e7
ND-MWFE (GeneID 5740593) | DRSC06364 | 3.03e7 | 1.97e7 | 1.59e7 | 9.66e6
TwdlK (GeneID 43205) | DRSC16045 | 1.88e7 | 3.24e7 | 1.27e7 | 1.79e7
PGRP-LD + Pmi | DRSC10512 | 3.07e7 | 2.32e7 | 2.33e7 | 9.82e6
PGRP-LD + Pmi | DRSC10513 | 3.72e7 | 2.92e7 | 1.86e7 | 1.44e7
CG15040 (GeneID 32848) | DRSC19616 | 4.40e7 | 2.47e7 | 2.16e7 | 1.29e7
CG15040 (GeneID 32848) | DRSC21482 | 2.59e7 | 2.71e7 | 1.26e7 | 1.33e7
CG5623 (GeneID 41904) | DRSC15848 | 2.43e7 | 3.62e7 | 1.20e7 | 4.47e7
Rpt6 (GeneID 33105) | DRSC20571 | 3.45e7 | 3.09e7 | 1.91e7 | 1.43e7
fd19B (GeneID 33010) | DRSC20688 | 4.93e7 | 3.04e7 | 2.42e7 | 1.58e7
sel (GeneID 36046) | DRSC06232 | 4.16e7 | 2.98e7 | 1.68e7 | 1.44e7
CG7309 (GeneID 34509) | DRSC03045 | 3.36e7 | 3.46e7 | 1.67e7 | 1.58e7
Acp62F (GeneID 38340) | DRSC08136 | 4.20e7 | 4.05e7 | 2.08e7 | 1.83e7
RhoGEF3 (GeneID 38050) | DRSC08266 | 2.36e7 | 2.07e7 | 1.82e7 | 1.36e7
RhoGEF3 (GeneID 38050) | DRSC08351 | 4.32e7 | 5.14e7 | 2.19e7 | 2.26e7
RhoGEF3 (GeneID 38050) | DRSC08352 | 3.41e7 | 5.00e7 | 1.80e7 | 2.14e7
RhoGEF3 (GeneID 38050) | DRSC08353 | 4.37e7 | 4.76e7 | 2.09e7 | 1.91e7
CG34280 (GeneID 5740878) | DRSC13229 | 4.25e7 | 2.62e7 | 1.65e7 | 1.26e7
